In all, about 52,000 sequences went through this assay and about 210 (0.4%) were called active.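 The calls were made as follows: active = gene whose silencing raises cell survival under the drug, median off-target-corrected z-score across its silencing RNAs 2 or more; inactive = the rest.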 The list shows a part of the results.
Test: Resistance to Poly (ADP-Ribose) Polymerase inhibitor: Gene Identification via Genome-wide siRNA Screen
Settings: mouse BRCA2 R2336H ES cells, olaparib, CellTiter-Glo viability; hits give high values
Procedure, shortened: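 Mouse BRCA2 R2336H ES cells were reverse-transfected with siRNA (20 nM final), treated at 48 h with 500 nM olaparib, and read by CellTiter-Glo after 72 h. Scores: MAD-based z per siRNA, median per gene, seed off-target correction.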
For GGCAUAUUCCGUUUUUAAATT against Pafah1b1, the z-score was inactive: 0.0506.
For GGAACUUACAUCAGAAAUGTT against Zdhhc2, the z-score was inactive: -0.285.
In the case of GCCGGAUGGCACAUUCGUATT against Cda, the z-score is reported as inactive: 0.73.
With GGUAAACAGAAUAGAAUCCTT against Lcmt1 the z-score was inactive: 0.132.
For CGUGAUAGAUGGAAGCUACTT against Cnbp2, the z-score was inactive: -0.343.
With GGAACAAGAACUUUCUAAGTT against Golph4 the z-score was inactive: 0.514.
With GGAUUCAACAGAUUUAGUGTT against Clcn1 the z-score was inactive: -0.136.
With GGAGCUUCUUAAUAACUUUTT against Xpo6 the z-score was inactive: 0.469.
For GGCUUCAUUAUCUGUUCUGTT against Olfr1442, the z-score was inactive: -0.538.
With GGACGACAAAUAGAAUUCUTT against Odf1 the z-score was inactive: 1.32.
In the case of CCUCUAUGACUGGUACAGGTT against Ttyh3, the z-score is reported as inactive: 0.389.
In the case of ACUAGAUUUAUCCUGCACATT against LOC434225, the z-score is reported as inactive: 0.565.
For GGGAUUGCUAUGUGCUUAGTT against As3mt, the z-score was inactive: -0.0593.
In the case of GCUGUUACCAGGUUUAAGUTT against AA589481, the z-score is reported as inactive: 1.09.
With CGAACUUGAGAAUCUUAGATT against AI604832 the z-score was inactive: -1.08.
For GGCUCUGAACAGCAUUGACTT against Mdfi, the z-score was inactive: -3.11.
For AAGGACGAUCCUGAUUUCATT against LOC432555, the z-score was inactive: 0.799.
With “GGGUUAUGGAUUUGAAGUGTT against D930015E06Rik” the z-score was inactive: -0.189.
In the case of GGAUCCAGGAGUAUGAGAATT against Atp5h, the z-score is reported as inactive: -1.96.
With CGGGUCCAUUAACAAAGCUTT against Bmp1 the z-score was inactive: -0.453.
With GCUAUCAUGAAGCUAAAUGTT against Igf2bp1 the z-score was inactive: -0.686.
In the case of GGCAAGAAAAACACUUUAUTT against Adprtl3, the z-score is reported as inactive: 0.77.
For GGGUGAUAUGGACUAUAGGTT against Cd1d2, the z-score was inactive: 0.704.
For CCUCUAAAGUCCUCAAUAGTT against Myoz2, the z-score was inactive: -1.97.
With GCUAAUUCCAAGAAAGAAGTT against Lifr the z-score was inactive: 0.328.
With GAAGCUUUGGUGGUACUAATT against Krtap16-1 the z-score was inactive: -0.711.
For GGGCAAAAAGUGCAUCCGGTT against Ctgf, the z-score was inactive: 1.02.
With CCACCACAGCACCGGAUAATT against Mrgprb3 the z-score was inactive: -1.19.
For GGCUGCAUUUUAAAACCGUTT against Prdm1, the z-score was inactive: 1.47.
For GGAAAGAGACAACUACUUATT against Gpr73, the z-score was inactive: 0.0455.
For CCUGUCAGGGAUGGAUUUUTT against Bhlhb2, the z-score was inactive: -0.226.
With GGCUAUGAGUCGACUGAUUTT against Scin the z-score was inactive: 1.01.
With “GGACUGAGGGCAAUGAAAATT against 4631426J05Rik” the z-score was inactive: 0.0855.
With GGAUGCUGACAACAUAUACTT against Plk3 the z-score was inactive: 0.958.
For GCCCUUACCUUGUAAGUUCTT against Sln, the z-score was inactive: -0.502.
For “CCUUCUGUAGUUGGAAUCATT against 1110038F21Rik”, the z-score was inactive: -0.558.
With “GCCAACUUAUGUUGUACGCTT against 2610511E22Rik” the z-score was inactive: 1.6.
With GGACGAUCGGAAUUGGAAATT against Slc24a6 the z-score was inactive: -0.0282.
For CCUGGAUUUCCGGGAGUACTT against Col4a1, the z-score was inactive: -2.1.
In the case of GCAUGUCUCAACUAAGGACTT against Upk3b, the z-score is reported as inactive: -0.0927.
In the case of GGUGAUAUGCAUGAAAAUGTT against Hn1, the z-score is reported as inactive: 0.573.
For GGGAACCUUGAAAUCAAUATT against Gpr75, the z-score was inactive: 0.686.
For GCGCAGAUAUCCUGGUUUGTT against Dhx36, the z-score was inactive: 0.854.
For CGCAUCAGUUUCUAUAAGATT against Rp1h, the z-score was inactive: 1.14.
In the case of GCCAACAGUAACGGUAUUGTT against Zfp278, the z-score is reported as inactive: -1.02.
For CCCAAUUCGAUUUCUGCCGTT against Rnf11, the z-score was inactive: -0.407.
With CCCACCGAGACACCAUCUUTT against AI428936 the z-score was inactive: -0.606.
For GCAGCAAGCUGAAAAAGAGTT against Cstl1, the z-score was inactive: -0.894.
With GCUACUUCAUUCCCGUGGCTT against Slc29a1 the z-score was inactive: 0.263.
With “CGUACGCAGAAAUGCCUAGTT against 1500011L16Rik” the z-score was inactive: -0.135.
In the case of GGAAAAGUUUGAAACCAAATT against Pmpca, the z-score is reported as inactive: -2.16.
With GGAAGAAGAACUGAAGACATT against Ctnnbl1 the z-score was inactive: -0.341.
For GGACAAGAGGUACACAAACTT against Eif3s7, the z-score was inactive: -2.13.
For “GGCAUAGUAAUCGAGUACUTT against 2610524A10Rik”, the z-score was inactive: 0.336.
In the case of GGAAUACAAAGAUAGCUUCTT against Atrn, the z-score is reported as inactive: 0.197.
For GGUUGUGCAAGAGUAUGAATT against Nphs2, the z-score was inactive: 2.88.
With CCACUUUCAACCUGACCGUTT against Pcdhac2 the z-score was inactive: -0.46.
In the case of CGUGAUUUCAUGCUGUGGCTT against Tal2, the z-score is reported as inactive: -1.53.
For GACACCAAAGUCUUUGAGUTT against Olfr315, the z-score was inactive: -0.867.
With GCUGAUGUUAUUUAACAUGTT against Tas2r124 the z-score was inactive: 0.717.
In the case of GUAAAUCCAUCUCUCUAGCTT against Cyp3a16, the z-score is reported as inactive: -0.801.
For GGCCCAAAAACAGGUAAAGTT against Adrb1, the z-score was inactive: 2.2.
In the case of “GAGUCACAUGUACCUGGCCTT against 9930021D14Rik”, the z-score is reported as inactive: 0.481.
For GCAGAGAUUUAUGAAGCAUTT against Tbp, the z-score was inactive: -0.312.
For GGAAUCGCUGUUAUAGUUATT against Spg4, the z-score was inactive: -0.488.
For CGUAGCUUAAUCUGGCAGATT against Aldh1a7, the z-score was inactive: -1.21.
In the case of GGAGUAGCUGUUCUAAUUGTT against Scamp5, the z-score is reported as inactive: -0.76.
In the case of GGACUUCAUGACCACCUAUTT against Ctsf, the z-score is reported as inactive: -0.667.
With GGAUAUCAUUGUGCCCACUTT against Olfr920 the z-score was inactive: -0.375.
With GGAGAUAUCUGGUAUACCCTT against Bace2 the z-score was inactive: 0.124.
With “CUCAGGAAAUAGGCCCAGATT against A530064D06Rik” the z-score was inactive: 0.849.
For GGAACUGGAGAAGAAAUUUTT against Sp100, the z-score was inactive: 0.223.
With GCAGCUAGUAUCCAGGCUATT against Ifrd1 the z-score was inactive: 0.666.
For GAGAAACCUGCCUCAUCUCTT against Spata3, the z-score was inactive: -0.577.
In the case of GCUUUGGAACCUCCGAAUGTT against Ddb2, the z-score is reported as inactive: -0.489.
With “CCCACUUAUAUAUGUAGUUTT against 2410187C16Rik” the z-score was inactive: -0.391.
In the case of GGCAGACAACGUGUCACCUTT against Aldh1a3, the z-score is reported as inactive: -0.741.
In the case of GGGUAUGAGCAUAAAAUAATT against Il16, the z-score is reported as inactive: -0.692.
For GCAUUGAGAUGAGAGCCUATT against BC022133, the z-score was inactive: -0.954.
In the case of “GGUCUUCUAAGAAAUUUUGTT against 5430425K04Rik”, the z-score is reported as inactive: 0.912.
With GGGACUGUAAUGUUGACACTT against Olfr560 the z-score was inactive: 0.851.
For “GGUACGAGUGAUCGUACUUTT against 5330438I03Rik”, the z-score was inactive: 0.1.
For GCAUCUAAGAAGCUGAAAATT against Mmrp19, the z-score was inactive: 2.56.
In the case of GCCCAAUCAAAAAAUGGUGTT against Zyx, the z-score is reported as inactive: 0.171.
In the case of “GGAGAUUUGAGUCCUCUAGTT against B830013J05Rik”, the z-score is reported as inactive: -0.654.
With UUUUUUCUGGUUCACUUCATT against Olfr177 the z-score was inactive: -0.594.
In the case of GGUGUAGGAAGAAUGUUUATT against Pfdn1, the z-score is reported as inactive: -0.127.
For “GUGAACAACAUCCAAGCGATT against 1110001P11Rik”, the z-score was inactive: 0.931.
With “GCGAAUUUUUGACACCUAUTT against 9830169G11Rik” the z-score was inactive: 0.626.
For GCUGUGUGACCAGCUGUUGTT against Krtap9-1, the z-score was inactive: 1.03.
For GGAAGACGUAAAGCUUUCUTT against Olfr1006, the z-score was inactive: 0.568.
With CCAAAGGUUACCAGGAAGCTT against Pcsk4 the z-score was inactive: -0.169.
For GCGAAAUCCUGGGCUACUCTT against Dyrk4, the z-score was inactive: 1.13.
In the case of GGGAUGUCAGCAAUCUAAATT against Pmfbp1, the z-score is reported as inactive: -0.697.
In the case of GGAUCACUCUAAUUCAGAUTT against Fcamr, the z-score is reported as inactive: -0.191.
With GGAUCACCAGACCUUUUUCTT against St7l the z-score was inactive: -0.848.
With GCAAAUAAUGAGGUCCAGATT against Rbms2 the z-score was inactive: -0.236.
In the case of “GGUAUCCUGAGUUUCAGCCTT against E230015B07Rik”, the z-score is reported as inactive: 0.933.
In the case of “CCUACAAAAUCUUUCCCAATT against 1300013B24Rik”, the z-score is reported as inactive: -0.491.
With “CCAGCUAUGAAUCAGAAUGTT against B230209C24Rik” the z-score was inactive: 0.623.
In the case of CCUCAGAUUGCCAAAAGUUTT against Tnip1, the z-score is reported as inactive: -1.02.
For “GCUGAGAAUGUGGUAACAGTT against 4930521A18Rik”, the z-score was inactive: -2.22.
In the case of GGUCCAAGUAAUGAACUCATT against Olfr155, the z-score is reported as inactive: -0.9.
For AUUUUGGUGGAGGUAACUATT against Hnrpa3, the z-score was inactive: -0.899.
